Test [1] concerns the target MBP-LIC1FL, full-length dynein light intermediate chain-1 (human) (UniProt Q9Y6G9). In words: ITC; EF-hand pairs titrated into MBP-LIC1FL; 20 mM HEPES (pH 7.5), 100 mM NaCl, 0.5 mM TCEP, 5 mM EGTA; 20 or 30 °C; both purified. In general terms: ITC needs no label: the signal is the heat of the interaction.
The target is the same in test [2]. Kind of test: ITC; EF-hand pairs titrated into MBP-LIC1FL; 20 mM HEPES (pH 7.5), 100 mM NaCl, 0.5 mM TCEP, 5 mM CaCl2; 20 or 30 °C; both purified.

Chains of the proteins cited; added tags and fusions are not shown.
UniProt Q9Y6G9: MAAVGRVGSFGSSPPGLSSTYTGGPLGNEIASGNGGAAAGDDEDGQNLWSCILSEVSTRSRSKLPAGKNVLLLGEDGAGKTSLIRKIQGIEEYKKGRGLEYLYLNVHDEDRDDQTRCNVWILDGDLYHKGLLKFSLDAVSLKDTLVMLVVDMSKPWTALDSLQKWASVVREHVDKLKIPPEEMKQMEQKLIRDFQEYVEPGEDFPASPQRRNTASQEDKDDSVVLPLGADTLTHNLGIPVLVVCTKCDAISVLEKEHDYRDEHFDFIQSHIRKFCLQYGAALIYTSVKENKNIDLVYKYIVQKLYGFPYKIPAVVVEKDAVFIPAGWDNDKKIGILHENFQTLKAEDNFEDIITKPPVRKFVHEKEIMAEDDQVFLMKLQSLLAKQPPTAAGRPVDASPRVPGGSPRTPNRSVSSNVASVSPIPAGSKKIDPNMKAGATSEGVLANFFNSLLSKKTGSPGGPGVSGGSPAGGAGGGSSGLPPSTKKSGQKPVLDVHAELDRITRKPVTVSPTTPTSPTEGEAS

No constants are given. Whether binding was seen depends on the method and setting. For some assays here: Where a sequence is shown, tags or fusion partners need not be part of it.

B1: MBP-CRACR2a_(47–122), EF-hand pair of calcium release-activated calcium channel regulator 2A (domain or fragment, UniProt Q9BSW2-1 47-122)
chain: GQLVMLRKAQEFFQTCDAEGKGFIARKDMQRLHKELPLSLEELEDVFDALDADGNGYLTPQEFTTGFSHFFFSQNN
Consider B1, for which the binding result in test [1] is “no binding (condition: with 5 mM EGTA)”.

B2: CRACR2a_(47–122) F58D (domain or fragment, UniProt Q9BSW2-1 47-122)
chain: GQLVMLRKAQEDFQTCDAEGKGFIARKDMQRLHKELPLSLEELEDVFDALDADGNGYLTPQEFTTGFSHFFFSQNN
For the molecule B2, the binding result in test [2] was “no binding”.

Values taken from publication PMC7655957.
